The test system of experiment [1] is KLF15 promoter (pEZX-FR03hKLF15p human podocytes). Nature of the experiment: KLF15 reporter high-throughput screening assay in human podocytes (firefly/renilla luciferase). In kind it is cell-based. Conditions: NCI library hits, 24 hours, read-out: Fold Change (KLF15 reporter activity). The protocol: Briefly, these podocytes proliferate under permissive conditions (gamma interferon at 33° C.), but differentiate under nonpermissive conditions (37° C.).
The amplified fragment contains MluI and PmeI RE sites and was subcloned into the MluI and PmeI cloning site of the pEZX-FR03 Firefly luciferase (FLuc) and Renilla luciferase (Rluc) reporter cloning vector (GeneCopoeia) to generate pEZX-FR03hKLF15p. Following verification of the sequence by restriction and μsequencing, the pEZX-FR03hKLF15p construct (which contains a puromycin resistance cassette) was transfected into human podocytes followed by selection in puromycin-containing media for 2 weeks. Surviving podocytes clones were pooled together for further analysis.
The library of compounds from the National Cancer Institute (Approved Oncology Drugs Set VI; Natural Products Set III; Diversity Set V; and Mechanistic Diversity Set II) were added to a final concentration of 1 μM in 0.5% DMSO in the low FBS cell culture media (0.2% FBS) using liquid handling system PipetMax (Gilson). After 24 hours incubation at 37° C., the Luc-Pair™ Duo-Luciferase HT Assay Kit (GeneCopoeia LF015) were used and firefly and renilla luciferase activity was determined using the SpectraMax M3 (Molecular Devices). Positive controls were all-trans retinoic acid (atRA) (1 μM) and dexamethasone (DEX) (1 μM). Negative controls were DMSO and cell-free media. […]

For experiment [2] the test system is unchanged. Nature of the experiment: Half maximal effective concentration (EC50) of KLF15 reporter activity. In kind it is cell-based. Particulars: dose-response. The protocol: The EC50 was determined using nonlinear regression and then choosing the equation of Sigmoidal function, 4PL method (X is log(concentration); or the equation of log(agonist) vs. response—variable slope).
To identify small molecule inducers of KLF15 expression in human podocytes, human podocytes were generated with a dual reporter, firefly luciferase directed at the KLF15 promoter region and renilla luciferase (pEZX-FR03hKLF15p). […] The positive controls were inducers of KLF15 expression, dexamethasone (DEX) and all-trans retinoic acid (atRA), and […] and cell-free wells served as negative controls.

As for `CNC(=O)c1ccccc1Sc1ccc2c(/C=C/c3ccccn3)n[nH]c2c1` [C-22, Axitinib, reference compound], the fold induction at 1 µM in experiment [1] came to 3.06. The compound also displayed an EC50 in experiment [2] of about 28.7 µM.

As a reminder, the EC50 is the concentration at which the effect is half-maximal. Lower therefore signals an effect from little substance.

The values above are taken from patent US20250186411A1, “Methods of Treating Disorders Associated with Overactivation of IKKB” (The United States Government as represented by the …, priority 2023, published 2025).
